Earlier results as cited in patent publication US11413241B2, “Method for preparing a composition with a low dissolved oxygen content, comprising acetaminophen, and optionally one or more NSAIDs, and a composition obtained thereof” (Hyloris Developments SA, priority 2017, dated 2022).

Conditions: background statement; cited from earlier work

Structure (SMILES): CC(C)Cc1ccc(C(C)C(=O)O)cc1 (stereo not shown) [ibuprofen]
- solubility in water: very poorly soluble
